# Primary screen of a compound library

By UniProt entry, the sequences of proteins in these tests, tags left out.
UniProt P9WFT3, whole entry: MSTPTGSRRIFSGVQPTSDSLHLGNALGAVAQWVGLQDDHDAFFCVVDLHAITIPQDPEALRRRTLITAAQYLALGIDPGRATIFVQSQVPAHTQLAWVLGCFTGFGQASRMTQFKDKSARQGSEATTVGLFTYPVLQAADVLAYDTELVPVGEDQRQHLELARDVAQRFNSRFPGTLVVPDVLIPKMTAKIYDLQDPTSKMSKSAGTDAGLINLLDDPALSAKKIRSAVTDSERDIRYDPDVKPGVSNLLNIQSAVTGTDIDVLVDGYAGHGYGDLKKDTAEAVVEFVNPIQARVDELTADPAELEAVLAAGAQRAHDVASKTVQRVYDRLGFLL

The values are deposited in ChEMBL (CHEMBL3988442, “University of Dundee, Small-Polar-MMV Screening Library” (2021)).

Each number is a percent effect as filed.
How 0% and 100% were set is not recorded. Most values in the screen are low, and negative values occur.
Compounds were drawn at random from those tested, without regard to their results.

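Tryptophan-tRNA ligase, Mycobacterium tuberculosis (UniProt P9WFT3). Enzyme assay of tryptophanyl-tRNA synthetase; the read-out is not stated. Compounds at 10 µM. Direction is not recorded; retested compounds ran higher, which suggests that high means inhibition. About 65,000 compounds were tested under these conditions; 0.098% (about 64) showed 50% or more at least once.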

SMILES | percent effect
CN1CCN2CCN(C(=O)c3cnn4cc(CCO)cnc34)CC2C1 (centres undefined) | -1.371
CS(=O)(=O)c1cccc(C(N)c2ccc(F)cc2)c1 (centres undefined) | -3.634
CN(CCCN1CCCCCC1)C(=O)c1ccccc1NCC(=O)O | -2.98
NC(=O)NC(=O)CCN1CCN(CC2CC2)c2ccccc21 | 14.5
CC(NC(=O)C1CCN(S(N)(=O)=O)CC1)c1cccc(OC(F)F)c1 (centres undefined) | -2.683
CC(C(=O)NCc1ccc(N2CCN(C)CC2)nc1)n1cccn1 (centres undefined) | -4.834
COCCOc1cc(C(=O)N2CC(C)c3ccccc32)ccn1 (centres undefined) | -3.398
O=C(c1cccs1)N1CCC[C@]2(C[C@@H](OCc3ccncc3)CO2)C1 | -5.112
Cc1cc(C(F)(F)F)nc(C2COCCN2S(C)(=O)=O)n1 (centres undefined) | 3.516
N#Cc1ccc(S(=O)(=O)NC(=O)c2ccc3c(c2)COC3)cc1 | 0.000008
c1ccc(CN2CCCn3nnc(Cn4cccc4)c3C2)nc1 | -1.481
Cc1cc(Nc2nc(C)cs2)nc(C2CCCCN2CCO)n1 (centres undefined) | 2.258
COc1cc(C)cc(C(C(=O)O)N(C)Cc2ccncc2C)c1OC (centres undefined) | 3.233
CC(C)(C)c1nnc2n1C(C(=O)N1CCCC1)CC2 (centres undefined) | -3.889
CCc1ncnc(N2CCCC(c3cc(C(N)=O)[nH]n3)C2)c1F (centres undefined) | 1.264
Cc1ccc(-n2c(C)nnc2SCC(O)COCc2ccco2)cc1 (centres undefined) | -4.329
c1ccc(-n2ccc(CN3CCOC(Cn4cncn4)C3)n2)cc1 (centres undefined) | -3.668
CCCn1nc(C)c(-c2cncn2CCN(C)C2CCCC2)c1C | -4.581
CSc1ccccc1C(=O)N(C)C1CCCN(CCc2ccccc2)C1 (centres undefined) | -3.958
CN(C)S(=O)(=O)N1C[C@H]2CCC[C@@]2(COCC2CC2)C1 | 2.383
O=C(NCCCn1ccnc1)N1CCCC1c1ccncc1 (centres undefined) | -1.954
Cn1cccc1C(=O)OCCNC(=O)c1ccccc1 | 3.159
O=C([C@H]1COC[C@H]2CN(C3CCCCC3)C[C@H]21)N1CCOCC1 | -4.497
CCc1ccc(S(=O)(=O)N2CCCC(c3ncc[nH]3)C2)s1 (centres undefined) | -1.952
CC(C)N(Cc1ccc(C#N)cc1)C(=O)NCCNc1ncccn1 | -5.206
CN(Cc1ccc(O)cc1)C(=O)NCc1nnc2n1CCCCC2 | -1.573
Cc1cn2nc(N3CCN(Cc4nc(C(C)C)no4)CC3)sc2n1 | 22.24
COc1ccccc1N(C)S(=O)(=O)c1cc(C(=O)O)cs1 | -2.275
CN(Cc1ccccc1)CC(C)(C)NC(=O)c1ccc(C(N)=O)cn1 | 1.206
Cc1noc(C)c1CN1CCO[C@H]2[C@H](Oc3ncccc3F)CC[C@@H]21 | 3.458
O=c1cc(CN(CCO)C2CC2)nc2ccc(Cl)cn12 | 15.53
CC(C)c1nc2n(n1)CC(NCc1nc(-c3ccccn3)no1)CC2 (centres undefined) | -2.034
CC1CCN(C(CNC(=O)Cn2cccn2)c2cccs2)CC1 (centres undefined) | -2.91
O=C(c1cc(C2CC2)no1)N1C[C@H]2CC[C@@H]1CN(Cc1ccccn1)C2 | 0.1837
O=C(NCC1(N2CCOCC2)CCSC1)Nc1cn[nH]c1 (centres undefined) | -2.91
O=C1N(Cc2cccnc2)CCC12CCCNC2 (centres undefined) | 2.672
Cc1noc(CNC(=O)C(C)(C)NC(=O)OC(C)(C)C)n1 | -0.4619
COCCN1CC(C(=O)N(CCN(C)C)Cc2ccc(C)s2)CC1=O (centres undefined) | 5.491
CC(C)S(=O)(=O)NCC1CCCN(C(=O)c2cccnc2)C1 (centres undefined) | 2.495
CC(Cn1cccn1)NCc1csc(-c2cccs2)n1 (centres undefined) | -33.88
COCc1nnc(-c2cccc(C(=O)N(C)CC(C)(C)C)c2)o1 | -3.51
CCSc1nnc(N(CCC#N)CCC#N)s1 | -4.289
CN(C)c1nc2n(c(=O)n1)CCN2C(=O)Nc1cccc(Cl)c1 | -2.957
Cc1ccc2c(c1)C(NCc1nnc3n1CCCCC3)CCCO2 (centres undefined) | 1.754
Cn1cnc(S(=O)(=O)NCCCN2CCOCC2)c1Cl | -3.521
O=C1NCCCC12CCN(Cc1ccc(-c3ccccc3)s1)C2 (centres undefined) | -6.771

Once more, the final 5:

* CCSc1nnc(N(CCC#N)CCC#N)s1 : -4.289%
* CN(C)c1nc2n(c(=O)n1)CCN2C(=O)Nc1cccc(Cl)c1 : -2.957%
* Cc1ccc2c(c1)C(NCc1nnc3n1CCCCC3)CCCO2 (centres undefined) : 1.754%
* Cn1cnc(S(=O)(=O)NCCCN2CCOCC2)c1Cl : -3.521%
* O=C1NCCCC12CCN(Cc1ccc(-c3ccccc3)s1)C2 (centres undefined) : -6.771%